PubChem BioAssay AID504771 | Drosophila RNAi Screening Center – 2011
The reagents shown are a selection, not the whole library. 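All genes were primary candidates; inactive means validation failed, not no effect; aggregate scores behind calls are not deposited.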 The numbers tell different reagents against one gene apart. Names joined by + are all predicted targets of the reagent. No sequences are given here.

Aim: 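Knock-downs that increase or decrease Htt-Q46 aggregates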 (follow-up of hits)
Cells: Drosophila S2 cells with copper-inducible mutant huntingtin exon 1 (46 glutamines)-eGFP
Reagents: long dsRNA against Drosophila genes, 250 ng dsRNA per well
Duration: 3 days of knock-down, then 2 days of copper induction before fixing
Challenge: copper sulfate at 400 µM to switch on Htt-Q46-eGFP expression
Measurement: 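Per-well count, size and brightness of GFP aggregates from automated images, set against plate mean and SD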
Call rule: 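Primary candidate if any aggregate measure lay more than 2 SD from the plate mean; active only if it then passed checks for off-target effects, reproducibility, independent dsRNAs and a promoter counter-screen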
Meaning of the calls: active = confirmed modifier; inactive = primary candidate not confirmed

| predicted target | dsRNA no. | aggregation phenotype | call |
| --- | --- | --- | --- |
| Csl4 | 1 | knock-down lowers aggregates | inactive |
| CRIF (CR6-interacting factor) | 1 | knock-down lowers aggregates | inactive |
| Dsp1 (Dorsal switch protein 1) | 1 | knock-down lowers aggregates | inactive |
| CG9775 | 1 | knock-down lowers aggregates | active |
| Rpt5 (Regulatory particle triple-A ATPase 5) | 1 | knock-down lowers aggregates | active |
| Cdc45 (Cell division cycle 45) | 1 | knock-down may raise aggregates | inactive |
| Polr2G (RNA polymerase II subunit G) | 1 | knock-down lowers aggregates | inactive |
| eIF3a (eukaryotic translation initiation factor 3 subunit a) | 1 | knock-down lowers aggregates | inactive |
| RpS3 (Ribosomal protein S3) | 1 | knock-down lowers aggregates | inactive |
| CG33269 | 1 | knock-down raises aggregates | inactive |
| Sr-CI (Scavenger receptor class C, type I) | 1 | knock-down raises aggregates | inactive |
| alphaTub67C (alpha-Tubulin at 67C) | 1 | knock-down lowers aggregates | inactive |
| Rpn10 (Regulatory particle non-ATPase 10) | 1 | knock-down lowers aggregates | active |
| mad2 | 1 | knock-down lowers aggregates | inactive |
| MED26 (Mediator complex subunit 26) | 1 | knock-down lowers aggregates | inactive |
| MED26 (Mediator complex subunit 26) | 2 | knock-down lowers aggregates | inactive |
| Klp61F (Kinesin-like protein at 61F) | 1 | knock-down lowers aggregates | active |
| Prp19 (Pre-RNA processing factor 19) | 1 | knock-down lowers aggregates | active |
| MTF-1 (Metal response element-binding Transcription Factor-1) | 1 | knock-down lowers aggregates | inactive |
| MTF-1 (Metal response element-binding Transcription Factor-1) | 2 | knock-down lowers aggregates | inactive |
| Polr2E (RNA polymerase II, I and III subunit E) | 1 | knock-down lowers aggregates | inactive |
| Sumo (Small ubiquitin like modifier) | 1 | knock-down lowers aggregates | active |
| APC10 (Anaphase Promoting Complex subunit 10) | 1 | knock-down lowers aggregates | inactive |
| snRNP-U1-C (small ribonucleoprotein particle U1 subunit C) | 1 | knock-down lowers aggregates | inactive |
| GlnRS (Glutaminyl-tRNA synthetase) | 1 | knock-down lowers aggregates | inactive |
| Nup98-96 (Nucleoporin 98-96kD) | 1 | knock-down lowers aggregates | active |
| Nup98-96 (Nucleoporin 98-96kD) | 2 | knock-down lowers aggregates | inactive |
| Vha36-1 (Vacuolar H[+] ATPase 36kD subunit 1) | 1 | knock-down raises aggregates | inactive |
| Hsc70-5 (Heat shock protein 70 cognate 5) | 1 | knock-down raises aggregates | active |
| fzy (fizzy) | 1 | knock-down lowers aggregates | inactive |
| MED15 (Mediator complex subunit 15) | 1 | knock-down lowers aggregates | inactive |
| RpL31 (Ribosomal protein L31) | 1 | knock-down lowers aggregates | inactive |
| MED8 (Mediator complex subunit 8) | 1 | knock-down lowers aggregates | inactive |
| Rca1 (Regulator of cyclin A1) | 1 | knock-down raises aggregates | inactive |
| mRpL21 (mitochondrial ribosomal protein L21) | 1 | knock-down lowers aggregates | inactive |
| DnaJ-1 (DnaJ-like-1) | 1 | knock-down raises aggregates | active |
| IntS12 (Integrator 12) | 1 | knock-down raises aggregates | inactive |
| mor (moira) | 1 | knock-down lowers aggregates | active |
| Prosalpha7 (Proteasome alpha7 subunit) | 1 | knock-down lowers aggregates | inactive |

15 successive reagents from above:
| predicted target | dsRNA no. | aggregation phenotype | call |
| --- | --- | --- | --- |
| Prp19 (Pre-RNA processing factor 19) | 1 | knock-down lowers aggregates | active |
| MTF-1 (Metal response element-binding Transcription Factor-1) | 1 | knock-down lowers aggregates | inactive |
| MTF-1 (Metal response element-binding Transcription Factor-1) | 2 | knock-down lowers aggregates | inactive |
| Polr2E (RNA polymerase II, I and III subunit E) | 1 | knock-down lowers aggregates | inactive |
| Sumo (Small ubiquitin like modifier) | 1 | knock-down lowers aggregates | active |
| APC10 (Anaphase Promoting Complex subunit 10) | 1 | knock-down lowers aggregates | inactive |
| snRNP-U1-C (small ribonucleoprotein particle U1 subunit C) | 1 | knock-down lowers aggregates | inactive |
| GlnRS (Glutaminyl-tRNA synthetase) | 1 | knock-down lowers aggregates | inactive |
| Nup98-96 (Nucleoporin 98-96kD) | 1 | knock-down lowers aggregates | active |
| Nup98-96 (Nucleoporin 98-96kD) | 2 | knock-down lowers aggregates | inactive |
| Vha36-1 (Vacuolar H[+] ATPase 36kD subunit 1) | 1 | knock-down raises aggregates | inactive |
| Hsc70-5 (Heat shock protein 70 cognate 5) | 1 | knock-down raises aggregates | active |
| fzy (fizzy) | 1 | knock-down lowers aggregates | inactive |
| MED15 (Mediator complex subunit 15) | 1 | knock-down lowers aggregates | inactive |
| RpL31 (Ribosomal protein L31) | 1 | knock-down lowers aggregates | inactive |

Further entries follow:
| predicted target | dsRNA no. | aggregation phenotype | call |
| --- | --- | --- | --- |
| Srrm234 (Serine-arginine repetitive matrix 2/3/4) | 1 | knock-down lowers aggregates | inactive |
| TfIIEalpha (Transcription factor IIEalpha) | 1 | knock-down lowers aggregates | inactive |
| SmD1 (Small ribonucleoprotein particle protein SmD1) | 1 | knock-down lowers aggregates | inactive |
| beta'COP (Coat Protein (coatomer) beta') | 1 | knock-down lowers aggregates | inactive |
| w-cup (world cup) | 1 | knock-down lowers aggregates | inactive |
| RpLP1 (Ribosomal protein LP1) | 1 | knock-down lowers aggregates | inactive |
| betaCOP (Coat Protein (coatomer) beta) | 1 | knock-down lowers aggregates | inactive |
| CG30349 | 1 | knock-down lowers aggregates | active |
| Cdc23 (Cell division cycle 23) | 1 | knock-down lowers aggregates | inactive |
| ssp (sunspot) | 1 | knock-down raises aggregates | active |
| Cpsf100 (Cleavage and polyadenylation specificity factor 100) | 1 | knock-down lowers aggregates | active |
| RpL39 (Ribosomal protein L39) | 1 | knock-down lowers aggregates | inactive |
| ND-30 (NADH dehydrogenase (ubiquinone) 30 kDa subunit) | 1 | knock-down lowers aggregates | inactive |
| hoip (hoi-polloi) | 1 | knock-down lowers aggregates | inactive |
| Rab26 | 1 | knock-down raises aggregates | inactive |
| rin (rasputin) | 1 | knock-down raises aggregates | active |
| Rpt1 (Regulatory particle triple-A ATPase 1) | 1 | knock-down lowers aggregates | inactive |
| Pym (Partner of Y14 and Mago) | 1 | knock-down lowers aggregates | inactive |
| Nup153 (Nucleoporin 153kD) | 1 | knock-down lowers aggregates | inactive |
| Polr3E (RNA polymerase III subunit E) | 1 | knock-down lowers aggregates | inactive |
| Ars2 (Arsenic resistance protein 2) | 1 | knock-down lowers aggregates | inactive |
| TH1 | 1 | knock-down raises aggregates | active |
| mRpL44 (mitochondrial ribosomal protein L44) | 1 | knock-down lowers aggregates | inactive |
| Pvr (PDGF- and VEGF-receptor related) | 1 | knock-down lowers aggregates | inactive |
| TfIIB (Transcription factor IIB) | 1 | knock-down lowers aggregates | inactive |
| CG1542 | 1 | knock-down lowers aggregates | inactive |
| mRpL1 (mitochondrial ribosomal protein L1) | 1 | knock-down lowers aggregates | inactive |
| tub (tube) | 1 | knock-down lowers aggregates | inactive |
| RpL14 (Ribosomal protein L14) | 1 | knock-down lowers aggregates | inactive |
| Rpn2 (Regulatory particle non-ATPase 2) | 1 | knock-down lowers aggregates | inactive |
| RpL7 (Ribosomal protein L7) | 1 | knock-down lowers aggregates | inactive |
| MED7 (Mediator complex subunit 7) | 1 | knock-down lowers aggregates | inactive |
| CG33500 | 1 | knock-down raises aggregates | inactive |
| Dgk (Diacyl glycerol kinase) | 1 | knock-down lowers aggregates | inactive |
| LSm3 (Like Sm 3) | 1 | knock-down raises aggregates | inactive |
| betaTub56D (beta-Tubulin at 56D) | 1 | knock-down lowers aggregates | active |
| Nup160 (Nucleoporin 160kD) | 1 | knock-down lowers aggregates | active |
| r (rudimentary) | 1 | knock-down lowers aggregates | inactive |
| r (rudimentary) | 2 | knock-down lowers aggregates | inactive |
| His2B:CG33870 + His2B:CG33868 + His2B:CG33882 + 20 more | 1 | knock-down lowers aggregates | inactive |
| Hsc70-3 (Heat shock protein 70 cognate 3) | 1 | knock-down lowers aggregates | active |
| CG13428 | 1 | knock-down lowers aggregates | inactive |
| Idh3a (Isocitrate dehydrogenase 3a) | 1 | knock-down raises aggregates | inactive |
| RpL13A (Ribosomal protein L13A) | 1 | knock-down lowers aggregates | inactive |
| SREBP (Sterol regulatory element binding protein) | 1 | knock-down lowers aggregates | inactive |
| ND-23 (NADH dehydrogenase (ubiquinone) 23 kDa subunit) | 1 | knock-down lowers aggregates | inactive |
| raw | 1 | knock-down may raise aggregates | active |
| mahj (mahjong) | 1 | knock-down lowers aggregates | active |
| Ref1 (RNA and export factor binding protein 1) | 1 | knock-down lowers aggregates | inactive |
| CG10660 | 1 | knock-down lowers aggregates | inactive |
| defl (deflated) | 1 | knock-down raises aggregates | active |
| MED30 (Mediator complex subunit 30) | 1 | knock-down lowers aggregates | inactive |
| Cpsf73 (Cleavage and polyadenylation specificity factor 73) | 1 | knock-down lowers aggregates | inactive |
| Tpt + mkg-p | 1 | knock-down lowers aggregates | inactive |
| CG31805 | 1 | knock-down lowers aggregates | inactive |
| Prp16 (pre-mRNA processing factor 16) | 1 | knock-down lowers aggregates | inactive |
| alphaCOP (Coat Protein (coatomer) alpha) | 1 | knock-down lowers aggregates | inactive |
| MED1 (Mediator complex subunit 1) | 1 | knock-down lowers aggregates | inactive |
| BTBD9 (BTB (POZ) domain containing 9) | 1 | knock-down lowers aggregates | inactive |
| Vha68-2 (Vacuolar H[+] ATPase 68 kDa subunit 2) | 1 | knock-down may raise aggregates | inactive |
| CG6066 | 1 | knock-down lowers aggregates | inactive |
| Sf3b1 (Splicing factor 3b subunit 1) | 1 | knock-down lowers aggregates | inactive |
| Prosbeta5 (Proteasome beta5 subunit) | 1 | knock-down lowers aggregates | inactive |
| CG31687 + Cdc23 | 1 | knock-down lowers aggregates | inactive |
| spt4 | 1 | knock-down raises aggregates | inactive |
| fand (fandango) | 1 | knock-down lowers aggregates | active |
| IntS1 (Integrator 1) | 1 | knock-down raises aggregates | inactive |
| CG11019 (retired record) | 1 | knock-down lowers aggregates | inactive |
| gish (gilgamesh) | 1 | knock-down raises aggregates | inactive |
| Polr2B (RNA polymerase II subunit B) | 1 | knock-down lowers aggregates | inactive |
| Prp8 (pre-mRNA processing factor 8) | 1 | knock-down lowers aggregates | inactive |
